{"source": "patent US20250388643A1", "about": "“GLUCAGON-LIKE PEPTIDE-2 COMPOSITIONS AND METHODS OF MAKING AND USING SAME” (Amunix Pharmaceuticals, Inc., priority 2011, published 2025)", "binders": {"B1": {"name": "GLP2-2G-XTEN_AE864 fusion protein (ligand)", "chain": "HGDGSFSDEMNTILDNLAARDFINWLIQTKITDGGSPAGSPTSTEEGTSESATPESGPGTSTEPSEGSAPGSPAGSPTSTEEGTSTEPSEGSAPGTSTEPSEGSAPGTSESATPESGPGSEPATSGSETPGSEPATSGSETPGSPAGSPTSTEEGTSESATPESGPGTSTEPSEGSAPGTSTEPSEGSAPGSPAGSPTSTEEGTSTEPSEGSAPGTSTEPSEGSAPGTSESATPESGPGTSTEPSEGSAPGTSESATPESGPGSEPATSGSETPGTSTEPSEGSAPGTSTEPSEGSAPGTSESATPESGPGTSESATPESGPGSPAGSPTSTEEGTSESATPESGPGSEPATSGSETPGTSESATPESGPGTSTEPSEGSAPGTSTEPSEGSAPGTSTEPSEGSAPGTSTEPSEGSAPGTSTEPSEGSAPGTSTEPSEGSAPGSPAGSPTSTEEGTSTEPSEGSAPGTSESATPESGPGSEPATSGSETPGTSESATPESGPGSEPATSGSETPGTSESATPESGPGTSTEPSEGSAPGTSESATPESGPGSPAGSPTSTEEGSPAGSPTSTEEGSPAGSPTSTEEGTSESATPESGPGTSTEPSEGSAPGTSESATPESGPGSEPATSGSETPGTSESATPESGPGSEPATSGSETPGTSESATPESGPGTSTEPSEGSAPGSPAGSPTSTEEGTSESATPESGPGSEPATSGSETPGTSESATPESGPGSPAGSPTSTEEGSPAGSPTSTEEGTSTEPSEGSAPGTSESATPESGPGTSESATPESGPGTSESATPESGPGSEPATSGSETPGSEPATSGSETPGSPAGSPTSTEEGTSTEPSEGSAPGTSTEPSEGSAPGSEPATSGSETPGTSESATPESGPGTSTEPSEGSAPG"}}, "biological_target": "T1, GLP-2 receptor (GLP2 G-protein coupled receptor) on transfected GLP2R cell line (Millipore, Cat #HTS164C) (human) (UniProt O95838)", "T1 sequence (looked up)": "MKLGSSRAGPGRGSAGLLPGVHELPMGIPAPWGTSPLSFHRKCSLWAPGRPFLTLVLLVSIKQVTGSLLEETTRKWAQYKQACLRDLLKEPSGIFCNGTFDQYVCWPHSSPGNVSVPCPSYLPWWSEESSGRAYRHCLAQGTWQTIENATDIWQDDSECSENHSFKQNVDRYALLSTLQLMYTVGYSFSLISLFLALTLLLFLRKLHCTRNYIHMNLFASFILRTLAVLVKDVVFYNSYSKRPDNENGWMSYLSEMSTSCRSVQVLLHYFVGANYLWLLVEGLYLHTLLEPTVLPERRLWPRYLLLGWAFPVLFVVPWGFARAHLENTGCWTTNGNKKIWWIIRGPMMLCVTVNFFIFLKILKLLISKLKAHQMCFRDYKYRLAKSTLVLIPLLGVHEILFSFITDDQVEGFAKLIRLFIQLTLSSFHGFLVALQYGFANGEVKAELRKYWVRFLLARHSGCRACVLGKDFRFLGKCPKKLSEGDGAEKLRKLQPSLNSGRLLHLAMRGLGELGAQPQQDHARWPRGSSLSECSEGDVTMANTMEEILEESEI", "assay": "calcium flux assay on GLP2R-transfected cells (GPCR Profiler, Millipore), called a receptor binding assay by the filing", "note": "Results are given in words; binding and its absence hold for the method and conditions named. Some results given as binding are weak or reduced against the parent protein; the word gives no strength. Sequences can lack the tags named with a protein.", "data": [{"binder": "B1", "values": [{"measurement": "binding", "result": "binds"}]}]}
